In paper doi:10.1101/2022.06.26.497666 (bioRxiv, 2022):
These are yes or no findings as the source states them, for the method shown. Binding seen in cells or lysates may run through a third protein. Some binding calls cover weakened binding; strength is not graded here. Values belong to the molecule of their own block, whether it stands above or below them.

Chains of the proteins cited; added tags and fusions are not shown.
UniProt Q9ULZ3: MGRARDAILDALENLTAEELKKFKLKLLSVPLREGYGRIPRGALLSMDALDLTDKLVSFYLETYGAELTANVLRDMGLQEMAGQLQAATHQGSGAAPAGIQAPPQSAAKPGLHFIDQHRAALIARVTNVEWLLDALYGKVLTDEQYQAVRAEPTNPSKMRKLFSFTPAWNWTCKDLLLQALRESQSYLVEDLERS

What was measured:
Assay in all cases: co-IP
[1] = molecular target: CARD8-T60 isoform (full-length) (human) (UniProt Q9Y2G2)
[2] = molecular target: T1, NLRP1 (wild-type full-length human NLRP1) (human) (UniProt Q9C000)
T1 sequence: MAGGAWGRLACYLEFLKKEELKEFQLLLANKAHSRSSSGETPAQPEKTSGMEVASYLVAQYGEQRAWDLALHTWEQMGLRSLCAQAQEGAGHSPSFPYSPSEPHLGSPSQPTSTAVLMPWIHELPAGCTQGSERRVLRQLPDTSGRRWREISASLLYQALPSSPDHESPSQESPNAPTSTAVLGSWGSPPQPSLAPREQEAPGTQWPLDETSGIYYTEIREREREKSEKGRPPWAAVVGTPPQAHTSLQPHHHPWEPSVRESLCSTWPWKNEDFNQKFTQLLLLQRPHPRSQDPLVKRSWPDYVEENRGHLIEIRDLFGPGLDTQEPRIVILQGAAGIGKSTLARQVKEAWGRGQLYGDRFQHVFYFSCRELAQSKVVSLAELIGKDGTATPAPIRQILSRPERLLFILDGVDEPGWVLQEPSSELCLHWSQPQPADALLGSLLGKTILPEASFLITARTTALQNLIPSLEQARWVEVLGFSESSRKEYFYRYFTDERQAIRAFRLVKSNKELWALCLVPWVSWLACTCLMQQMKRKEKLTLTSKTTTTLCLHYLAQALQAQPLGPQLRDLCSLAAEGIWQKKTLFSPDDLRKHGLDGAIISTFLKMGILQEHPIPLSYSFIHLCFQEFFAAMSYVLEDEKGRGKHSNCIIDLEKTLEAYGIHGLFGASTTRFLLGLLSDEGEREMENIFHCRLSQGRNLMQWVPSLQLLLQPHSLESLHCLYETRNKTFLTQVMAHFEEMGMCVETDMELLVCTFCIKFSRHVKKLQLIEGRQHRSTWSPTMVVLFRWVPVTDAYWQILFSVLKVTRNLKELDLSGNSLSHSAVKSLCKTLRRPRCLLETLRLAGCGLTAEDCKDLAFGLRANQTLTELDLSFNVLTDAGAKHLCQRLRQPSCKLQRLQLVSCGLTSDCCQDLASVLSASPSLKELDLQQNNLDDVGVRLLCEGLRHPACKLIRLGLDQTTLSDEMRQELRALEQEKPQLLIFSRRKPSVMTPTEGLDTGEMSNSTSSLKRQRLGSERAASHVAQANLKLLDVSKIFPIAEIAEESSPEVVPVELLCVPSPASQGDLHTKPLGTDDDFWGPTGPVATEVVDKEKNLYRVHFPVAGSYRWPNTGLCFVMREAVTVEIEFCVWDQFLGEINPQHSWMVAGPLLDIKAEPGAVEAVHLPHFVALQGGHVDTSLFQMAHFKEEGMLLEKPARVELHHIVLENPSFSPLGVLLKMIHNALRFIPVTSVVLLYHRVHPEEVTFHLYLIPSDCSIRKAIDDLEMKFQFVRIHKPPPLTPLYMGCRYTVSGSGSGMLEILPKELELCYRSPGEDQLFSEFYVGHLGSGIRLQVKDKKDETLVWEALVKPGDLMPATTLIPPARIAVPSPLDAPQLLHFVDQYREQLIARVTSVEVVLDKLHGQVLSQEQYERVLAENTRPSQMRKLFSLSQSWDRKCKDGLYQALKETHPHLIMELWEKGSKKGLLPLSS

[3] = molecular target: T2, NLRP1 (wild-type full-length human NLRP1) (human), Q9C000; details: remark: other sources report otherwise
T2 chain: T1 sequence

[4] = molecular target: T3, NLRP1 NACHT domain (truncation mutant of NLRP1) (human) (UniProt Q9C000)
T3 sequence: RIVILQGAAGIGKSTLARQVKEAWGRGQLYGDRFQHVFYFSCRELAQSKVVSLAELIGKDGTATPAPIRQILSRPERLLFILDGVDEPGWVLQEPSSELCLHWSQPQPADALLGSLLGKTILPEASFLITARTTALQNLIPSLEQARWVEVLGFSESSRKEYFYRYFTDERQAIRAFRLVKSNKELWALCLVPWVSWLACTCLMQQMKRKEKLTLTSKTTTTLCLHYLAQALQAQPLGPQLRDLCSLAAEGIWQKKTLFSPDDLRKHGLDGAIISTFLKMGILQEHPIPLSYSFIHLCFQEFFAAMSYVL

[5] = molecular target: T4, NLRP1 FIIND domain (truncation mutant of NLRP1) (human) (UniProt Q9C000)
T4 sequence: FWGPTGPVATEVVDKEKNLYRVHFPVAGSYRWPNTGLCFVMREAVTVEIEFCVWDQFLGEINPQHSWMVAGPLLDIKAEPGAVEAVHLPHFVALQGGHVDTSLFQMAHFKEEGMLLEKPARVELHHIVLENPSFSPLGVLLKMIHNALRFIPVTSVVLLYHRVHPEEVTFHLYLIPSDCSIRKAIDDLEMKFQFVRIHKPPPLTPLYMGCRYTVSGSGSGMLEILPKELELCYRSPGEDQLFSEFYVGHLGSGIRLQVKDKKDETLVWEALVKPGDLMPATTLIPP

binding [1]: no binding
Molecule: ASC (from UniProt Q9ULZ3 1-195)

binding [3]: binds
B1: CARD8-T48 isoform (wild-type full-length), Q9Y2G2-1 (protein)
chain: MMRQRQSHYCSVLFLSVNYLGGTFPGDICSEENQIVSSYASKVCFEIEEDYKNRQFLGPEGNVDVELIDKSTNRYSVWFPTAGWYLWSATGLGFLVRDEVTVTIAFGSWSQHLALDLQHHEQWLVGGPLFDVTAEPEEAVAEIHLPHFISLQGEVDVSWFLVAHFKNEGMVLEHPARVEPFYAVLESPSFSLMGILLRIASGTRLSIPITSNTLIYYHPHPEDIKFHLYLVPSDALLTKAIDDEEDRFHGVRLQTSPPMEPLNFGSSYIVSNSANLKVMPKELKLSYRSPGEIQHFSKFYAGQMKEPIQLEITEKRHGTLVWDTEVKPVDLQLVAASAPPPFSGAAFVKENHRQLQARMGDLKGVLDDLQDNEVLTENEKELVEQEKTRQSKNEALLSMVEKKGDLALDVLFRSISERDPYLVSYLRQQNL

Further lines, the molecule ahead of its results:

Molecule: CARD8-T48-Q152QA (from UniProt Q9Y2G2-1)
binding [2]: binds

B2: CARD8-T60 isoform (full-length) (natural protein)
chain: MEKKECPEKSSSSEEELPRRDSGSSRNIDASKLIRLQGSRKLLVDNSIRELQYTKTGIFFQAEACVTNDTVYRELPCVSETLCDISHFFQEDDETEAEPLLFRAVPECQLSGGDIPSVSEEQESSEGQDSGDICSEENQIVSSYASKVCFEIEEDYKNRQFLGPEGNVDVELIDKSTNRYSVWFPTAGWYLWSATGLGFLVRDEVTVTIAFGSWSQHLALDLQHHEQWLVGGPLFDVTAEPEEAVAEIHLPHFISLQAGEVDVSWFLVAHFKNEGMVLEHPARVEPFYAVLESPSFSLMGILLRIASGTRLSIPITSNTLIYYHPHPEDIKFHLYLVPSDALLTKAIDDEEDRFHGVRLQTSPPMEPLNFGSSYIVSNSANLKVMPKELKLSYRSPGEIQHFSKFYAGQMKEPIQLEITEKRHGTLVWDTEVKPVDLQLVAASAPPPFSGAAFVKENHRQLQARMGDLKGVLDDLQDNEVLTENEKELVEQEKTRQSKNEALLSMVEKKGDLALDVLFRSISERDPYLVSYLRQQNL
binding [4]: binds
binding [5]: binds
